{
  "source": "patent US20220112303A1",
  "about": "(ICHILOV TECH, published 2022)",
  "binders": {"B1": {"name": "humanized matured NS17 anti-CD24 antibody (antibody, V domains shown)", "VH": "QVHLQESGPGLVKPSQTLSLTCAVSGYSISSGYTWHWIRQPPGKTVEWIGYIQYTGSTRYNPALRGRLTMSVDTSKNQFSLKLISVTAADTGVYFCARGTTASFDYWGQGTTVTVSS", "VL": "DIVMTQSPDSLNVSLGERATIRCRSSQSLLYSSDQKNYLTWYQQKPGQPPKLLISWASPRASGVPDRFSGSGSGTDFTLTISSLQAEDVGVYYCQQYFIYPLTFGVGTKLELK", "notes": "Tested as whole IgG with human CH1-CH3 and Ck, expressed from the pcDNA4-PCMV-TetO2-IgL-PCMV-TetO2-IgH vector; also called matured antibody"}},
  "target": "T1, CD24 antigen (UniProt P25063 27-59)",
  "T1 chain": "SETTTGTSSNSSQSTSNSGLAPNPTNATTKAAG",
  "experiment": "antigen-based ELISA",
  "note": "Results are given in words; binding and its absence hold for the method and conditions named. Some entries that bind do so weakly or less than the wild type.",
  "data": [
    {"binder": "B1", "values": [
      {"measurement": "binding", "value": "binds"}
    ]}
  ]
}
